# Assay results as given in patent EP0380554B1 (Ferring AB, priority 1987, dated 1993).
# Experiment: general procedure: Boc solid-phase peptide synthesis; 4-methylbenzhydrylamine resin, theoretical loading 0.66 meq/g (Peptides International)
# Settings: whole synthesis, 223 nm, one disulfide bridge, sequence written open
row,Substance,final HPLC purity
1,1-Hmp-2-Phe-8-Dab-VT,99.5%
2,1-Hmp-2-Phe-8-Orn(Ala)-VT,97.8%
